Test results published in paper PMC9953967, “Discovery of Novel Bioactive Tanshinones and Carnosol Analogues against Breast Cancer” (Cancers, 2023).

Columns and labels:
MCF07 = experiment: CellTiterGlo luminescent cell viability assay, MCF07; conditions: (EC50 BJ)/(EC50 MCF07)
MDA-MB231 = experiment: CellTiterGlo luminescent cell viability assay, MDA-MB231; conditions: (EC50 BJ)/(EC50 MDA-MB231)
SUM149 = experiment: CellTiterGlo luminescent cell viability assay, SUM149; conditions: (EC50 BJ)/(EC50 SUM149)
T47D = experiment: CellTiterGlo luminescent cell viability assay, T47D; conditions: (EC50 BJ)/(EC50 T47D)
[1] = test system: non-tumorigenic cell line BJ; experiment: CellTiterGlo cell viability assay, non-neoplastic cell line BJ; conditions: range over the four cancer cell lines

SMILES	Normalized Therapeutic index MCF07 (MCF07)	Normalized Therapeutic index MDA-MB231 (MDA-MB231)	Normalized Therapeutic index SUM149 (SUM149)	Normalized Therapeutic index T47D (T47D)	TI: Therapeutic index = (EC50 non-neoplastic cell line BJ)/(EC50 cancer cell line) [1]
CC(C)C1=CC2=C(C(=O)C1=O)[C@@]1(C)CCC[C@@](C)(CN3C(=O)c4ccccc4C3=O)[C@@H]1CC2 [Compound 8, 11,12-Dioxo-N,N-(phthaloyl)dehydroabietylamine]	15	12	23	1.9	1–24
CC(C)c1cc2c(cc1O)[C@@]1(C)CCCC(C)(C)[C@@H]1CC2 [Compound 1, ferruginol]	2.6	6	1	0.5	–
CC(C)c1cc2c(cc1O)[C@@]1(C)CCC[C@@](C)(CN)[C@@H]1CC2 [Compound 2, 12-hydroxydehydroabietylamine]	7.5	14	17	1.5	1–17
COC(=O)[C@]1(C)CCC[C@]2(C)C3=C(C=C(C(C)C)C(=O)C3=O)CC[C@@H]12 [Compound 7, Methyl 11,12-Dioxo-abieta-8,13-dien-18-oate]	6.7	14	43	4	4–44
COC(=O)[C@]1(C)CCC[C@]2(C)c3c(cc(C(C)C)c(O)c3O)CC[C@@H]12 [Compound 9, Methyl 11,12-Dihydroxy-dehydroabietate]	1.1	6	1.1	3.9	–
CC(C)c1cc2c(cc1O)[C@@]1(C)CCC[C@@](C)(CN3C(=O)c4ccccc4C3=O)[C@@H]1CC2 [Compound 6, 18-(phthalimid-2-yl)ferruginol]	5.7	9	16	2.5	2–17
CC(C)c1cc2c(c(O)c1O)[C@@]1(C)CCC[C@@](C)(CN3C(=O)c4ccccc4C3=O)[C@@H]1CC2 [Compound 10, 11,12-Dihydroxy-N,N-(phthaloyl)dehydroabietylamine]	7	11	18	3.9	4–18
